The target of this test is T1, 6XHis-EcEngA (UniProt P0A6P5).
T1 sequence: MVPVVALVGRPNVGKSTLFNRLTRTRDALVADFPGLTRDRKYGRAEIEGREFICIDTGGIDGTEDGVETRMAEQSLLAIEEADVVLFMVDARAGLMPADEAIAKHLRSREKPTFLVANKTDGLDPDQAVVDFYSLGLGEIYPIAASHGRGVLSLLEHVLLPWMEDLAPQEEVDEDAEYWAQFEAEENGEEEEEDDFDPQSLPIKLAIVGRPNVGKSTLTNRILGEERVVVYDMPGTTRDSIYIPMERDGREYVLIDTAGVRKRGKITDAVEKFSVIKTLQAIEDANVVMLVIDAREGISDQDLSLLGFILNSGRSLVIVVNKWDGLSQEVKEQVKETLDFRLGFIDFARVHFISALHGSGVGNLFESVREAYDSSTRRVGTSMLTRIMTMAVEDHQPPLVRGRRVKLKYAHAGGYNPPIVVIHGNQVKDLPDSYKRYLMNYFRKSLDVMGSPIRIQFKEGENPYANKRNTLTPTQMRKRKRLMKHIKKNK
Kind of test: pull-down; 6XHis-tagged bait bound to Ni-NTA beads; P. falciparum lysate; western blot of the eluates; only the target purified.

These are yes or no findings as the source states them, for the method shown. Binding seen in cells or lysates may run through a third protein. Where a sequence is shown, tags or fusion partners need not be part of it.

B1: PfIscA2 (protein, UniProt O97297 1-404)
chain: MFNNFLNMYMCTLAEKLCKFKKNNFNNIHRNNNFYRDNNFYRDNNFYRDNNFYRDNNFYRDNNLYTNNNLYRDNNFYRDNNFYRDNNFYRDNNLYTNNNLYRDNNLYTNNNLYRDNNFYNITLRKFHFIQTISNNNFNFEIIKKYGDVINKIMFIHTQKKNKQERFMFNNKKYIKRKEYILNDLNEFISIIPHPEINNEITNNSNQKKNKDNKQNVLSTNQQIITNYNLNHKENVTSNLNFNNKEEDEKKLDKLLKKRNIKKRDIVTITEEAKEELKKIISINKKENNNNYNNMNTICSDNHNDMNTICNDKNILKLFFITKGCNGLTHSFNFISKKDIHKEDEIIYDDQNNILLVIDKNCILYVINTTLDYYKDDLTEKFIFKNPNITSICPCGTSFHFSKKK
As to B1, the binding result is “no binding”.

B2: PfIscU (protein, UniProt Q8IKT4 1-162)
chain: MKSKILCNLFKGKSCICLYTNCLNENNVNKCYYNLVRNYSDHVKDHFNKPRNVGSFDKNEKNIGTSIVGKASCGDVIKLQLKIENDVIKDARFMAFGCGSAIASSSYATELIKGKTIDEALKIKNNDIASHLSLPPVKIHCSLLAEDAIKHAIKNYREKVLT
As to B2, the binding result is listed as “no binding”.

(Values after article PMC11476691, “ATM1, an essential conserved transporter in Apicomplexa, bridges mitochondrial and cytosolic [Fe-S] biogenesis” (PLOS Pathogens, 2024).)
